# Assay results: PMC6915734
# Results are given in words; binding and its absence hold for the method and conditions named. Some binding calls cover weakened binding; strength is not graded here.
# B1: Human pulmonary surfactant protein-D, P35247 21-375 (protein)
# chain: AEMKTYSHRTMPSACTLVMCSSVESGLPGRDGRDGREGPRGEKGDPGLPGAAGQAGMPGQAGPVGPKGDNGSVGEPGPKGDTGPSGPPGPPGVPGPAGREGPLGKQGNIGPQGKPGPKGEAGPKGEVGAPGMQGSAGARGLAGPKGERGVPGERGVPGNTGAAGSAGAMGPQGSPGARGPPGLKGDKGIPGDKGAKGESGLPDVASLRQQVEALQGQVQHLQAAFSQYKKVELFPNGQSVGEKIFKTAGFVKPFTEAQLLCTQAGGQLASPRSAAENAALQQLVVAKNEAAFLSMTDSKTEGKFTYPTGESLVYSNWAPGEPNDDGGSEDCVEIFTNGKWNDRACGEKRLVVCEF
# Target: T1, Human pulmonary surfactant protein-D (human), P35247
# T1 chain: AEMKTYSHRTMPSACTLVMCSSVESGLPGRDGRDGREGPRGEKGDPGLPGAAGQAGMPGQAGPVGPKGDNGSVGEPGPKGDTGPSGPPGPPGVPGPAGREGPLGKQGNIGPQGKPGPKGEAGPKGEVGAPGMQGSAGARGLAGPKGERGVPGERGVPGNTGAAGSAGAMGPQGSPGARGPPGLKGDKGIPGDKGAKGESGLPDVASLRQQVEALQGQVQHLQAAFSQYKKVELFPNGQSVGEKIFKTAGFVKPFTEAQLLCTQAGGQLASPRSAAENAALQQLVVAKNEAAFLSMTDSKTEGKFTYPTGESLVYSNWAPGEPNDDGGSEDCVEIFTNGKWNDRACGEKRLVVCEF
# Assay: atomic force microscopy; purified hSP-D imaged by AFM (Supplementary Fig. 1); conditions not given; both purified
# Conditions: remark: other sources report otherwise
binder,measurement,value
B1,binding,binds
